Reference: US20220073586A1
No constants are given. Whether binding was seen depends on the method and setting. Some entries that bind do so weakly or less than the wild type. Sequences can lack the tags named with a protein.

The chains behind the UniProt entries cited, without tags or fusion partners. Where a name states a change or a piece, a line headed by the entry shows the natural chain unless it says otherwise. Residues count along the entry.
UniProt Q9NZQ7: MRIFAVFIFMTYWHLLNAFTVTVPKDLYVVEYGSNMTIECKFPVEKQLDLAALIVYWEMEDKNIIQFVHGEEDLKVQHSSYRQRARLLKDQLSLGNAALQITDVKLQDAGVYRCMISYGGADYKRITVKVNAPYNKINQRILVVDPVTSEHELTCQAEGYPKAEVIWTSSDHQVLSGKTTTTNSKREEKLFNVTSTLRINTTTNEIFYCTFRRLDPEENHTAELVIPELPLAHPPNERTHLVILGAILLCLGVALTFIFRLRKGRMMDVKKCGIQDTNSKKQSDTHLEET
PD-L1 on MDA-MB-231 cells (PD-L1 high expressed human breast cancer cell line): residues 19-290 of Q9NZQ7

Assays:
[1] = target: PD-L1 molecules (Sino, Cat #10084-H08H) (UniProt Q9NZQ7); assay: SPR, Biacore T200
[2] = target: PD-L1 antigen (coated on 96-well immunoplate) (UniProt Q9NZQ7); assay: plate antigen binding assay, coated PD-L1, anti-hFc-HRP
[3] = target: PD-L1 on MDA-MB-231 cells (PD-L1 high expressed human breast cancer cell line) (human) (UniProt Q9NZQ7); assay: FACS on MDA-MB-231 cells, anti-hFC-AF488 second antibody
[4] = target: PD-L1 antigen (coated on 96-well immunoplate) (UniProt Q9NZQ7); assay: single antigen ELISA, PD-L1 coated at 1 ug/mL, detection with anti-hFc-HRP
[5] = target: PD-L1 on MDA-MB-231 cells (PD-L1 high expressed human breast cancer cell line) (human) (UniProt Q9NZQ7); assay: FACS cell binding on PD-L1 positive cells (MDA-MB-231), detection with anti-hFc-AF488

Measured: binding

B1: euPD-1 Fc fusion protein (Fc fusion)
chain: FLESPDRPWNAPTFSPALLLVAEGDNATFTCSFSNASESFHVVWHRESPSGQTDTLAAFPEDRSQPGQDHRFRVTRLPNGRDFHMSVVRAQRNDSGTYVCGVISLAPKIQIKESLRAELRVTERRAEVPTAHPSPSPRPAGQFQTLVVGGGGGSSNTKVDKRVEPKSCDKTHTCPPCPAPPVAGPSVFLFPPKPKDTLMISRTPEVTCVVVDVSHEDPEVQFNWYVDGVEVHNAKTKPREEQFNSTFRVVSVLTVVHQDWLNGKEYKCKVSNKGLPAPIEKTISKTKGQPREPQVYTLPPSREEMTKNQVSLTCLVKGFYPSDIAVEWESNGQPENNYKTTPPMLDSDGSFFLYSKLTVDKSRWQQGNVFSCSVMHEALHNHYTQKSLSLSPGK
binds: all assays above
